These are yes or no findings as the source states them, for the method shown. Some entries that bind do so weakly or less than the wild type.

Two molecules from article doi:10.1101/197848 can be followed below.

Assay [1] has as its target T1, yeast smc3AAA (Smc3 R665A K668A R669A, subunit of the purified DDAAA mutant tetramer) (S. cerevisiae) (UniProt P47037).
T1 sequence: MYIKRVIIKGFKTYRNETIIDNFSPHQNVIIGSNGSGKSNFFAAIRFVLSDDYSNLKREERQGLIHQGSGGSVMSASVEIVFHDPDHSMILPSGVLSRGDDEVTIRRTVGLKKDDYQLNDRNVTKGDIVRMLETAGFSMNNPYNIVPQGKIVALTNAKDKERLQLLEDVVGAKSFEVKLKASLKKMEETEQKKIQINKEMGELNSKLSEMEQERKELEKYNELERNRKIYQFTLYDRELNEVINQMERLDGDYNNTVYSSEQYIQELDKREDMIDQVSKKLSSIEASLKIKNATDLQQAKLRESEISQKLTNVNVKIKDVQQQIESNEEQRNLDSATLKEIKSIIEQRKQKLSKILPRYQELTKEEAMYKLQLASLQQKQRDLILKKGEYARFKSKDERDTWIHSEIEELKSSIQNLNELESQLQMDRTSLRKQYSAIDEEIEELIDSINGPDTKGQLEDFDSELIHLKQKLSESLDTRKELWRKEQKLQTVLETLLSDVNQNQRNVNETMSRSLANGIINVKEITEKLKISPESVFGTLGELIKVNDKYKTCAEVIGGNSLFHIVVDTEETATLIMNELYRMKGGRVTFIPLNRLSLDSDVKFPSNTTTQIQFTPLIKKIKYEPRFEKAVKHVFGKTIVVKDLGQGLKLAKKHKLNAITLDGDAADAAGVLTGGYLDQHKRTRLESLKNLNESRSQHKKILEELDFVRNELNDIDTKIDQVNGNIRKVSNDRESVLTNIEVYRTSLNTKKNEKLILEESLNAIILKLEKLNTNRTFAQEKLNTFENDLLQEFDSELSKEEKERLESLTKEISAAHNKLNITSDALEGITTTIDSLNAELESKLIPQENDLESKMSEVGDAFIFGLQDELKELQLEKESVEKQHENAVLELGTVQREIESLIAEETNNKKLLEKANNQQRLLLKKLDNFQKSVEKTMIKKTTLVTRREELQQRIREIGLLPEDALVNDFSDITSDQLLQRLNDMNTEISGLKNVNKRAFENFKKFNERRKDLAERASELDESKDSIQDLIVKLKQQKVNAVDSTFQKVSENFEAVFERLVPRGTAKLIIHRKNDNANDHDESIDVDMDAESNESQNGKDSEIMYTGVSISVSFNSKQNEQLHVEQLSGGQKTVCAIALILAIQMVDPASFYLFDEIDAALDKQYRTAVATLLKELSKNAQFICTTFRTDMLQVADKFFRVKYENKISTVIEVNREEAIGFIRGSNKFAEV
Nature of the assay: co-purification.

Assay [2] concerns the target T2, yeast Scc1 (subunit of the purified tetramers) (S. cerevisiae) (UniProt Q12158).
T2 sequence: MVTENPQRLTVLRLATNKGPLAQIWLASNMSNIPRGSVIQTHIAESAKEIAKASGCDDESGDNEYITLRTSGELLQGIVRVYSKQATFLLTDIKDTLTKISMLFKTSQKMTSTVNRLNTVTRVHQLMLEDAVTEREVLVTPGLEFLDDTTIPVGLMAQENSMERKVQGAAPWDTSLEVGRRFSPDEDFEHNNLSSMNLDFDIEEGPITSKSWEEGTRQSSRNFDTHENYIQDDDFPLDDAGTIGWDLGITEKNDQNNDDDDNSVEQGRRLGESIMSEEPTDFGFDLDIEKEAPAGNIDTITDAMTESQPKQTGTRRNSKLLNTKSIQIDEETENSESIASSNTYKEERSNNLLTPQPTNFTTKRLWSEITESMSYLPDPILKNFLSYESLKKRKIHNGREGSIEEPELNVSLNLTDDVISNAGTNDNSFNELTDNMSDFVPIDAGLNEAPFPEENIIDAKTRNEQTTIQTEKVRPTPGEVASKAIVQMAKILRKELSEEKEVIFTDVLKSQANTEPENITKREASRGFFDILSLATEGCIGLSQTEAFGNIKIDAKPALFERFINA
Description: co-purification.

B1: yeast smc1DD (Smc1 K554D K661D, subunit of the purified DDAAA mutant tetramer) (protein, UniProt P32908 1-1225)
chain: MGRLVGLELSNFKSYRGVTKVGFGESNFTSIIGPNGSGKSNMMDAISFVLGVRSNHLRSNILKDLIYRGVLNDENSDDYDNEGAASSNPQSAYVKAFYQKGNKLVELMRIISRNGDTSYKIDGKTVSYKDYSIFLENENILIKAKNFLVFQGDVEQIAAQSPVELSRMFEEVSGSIQYKKEYEELKEKIEKLSKSATESIKNRRRIHGELKTYKEGINKNEEYRKQLDKKNELQKFQALWQLYHLEQQKEELTDKLSALNSEISSLKGKINNEMKSLQRSKSSFVKESAVISKQKSKLDYIFKDKEKLVSDLRLIKVPQQAAGKRISHIEKRIESLQKDLQRQKTYVERFETQLKVVTRSKEAFEEEIKQSARNYDKFKLNENDLKTYNCLHEKYLTEGGSILEEKIAVLNNDKREIQEELERFNKRADISKRRITEELSITGEKLDTQLNDLRVSLNEKNALHTERLHELKKLQSDIESANNQEYDLNFKLRETLVKIDDLSANQRETMKERKLRENIAMLKRFFPGVKGLVHDLCHPKKEKYGLAVSTILGDNFDSVIVENLTVAQECIAFLKKQRAGTASFIPLDTIETELPTLSLPDSQDYILSINAIDYEPEYEKAMQYVCGDSIICNTLNIAKDLKWKKGIRGKLVTIEGALIHDAGLMTGGISGDANNRWDKEEYQSLMSLKDKLLIQIDELSNGQRSNSIRAREVENSVSLLNSDIANLRTQVTQQKRSLDENRLEIKYHNDLIEKEIQPKITELKKKLDDLENTKDNLVKEKEALQNNIFKEFTSKIGFTIKEYENHSGELMRQQSKELQQLQKQILTVENKLQFETDRLSTTQRRYEKAQKDLENAQVEMKSLEEQEYAIEMKIGSIESKLEEHKNHLDELQKKFVTKQSELNSSEDILEDMNSNLQVLKRERDGIKEDIEKFDLERVTALKNCKISNINIPISSETTIDDLPISSTDNEAITISNSIDINYKGLPKKYKENNTDSARKELEQKIHEVEEILNELQPNARALERYDEAEGRFEVINNETEQLKAEEKKILNQFLKIKKKRKELFEKTFDYVSDHLDAIYRELTKNPNSNVELAGGNASLTIEDEDEPFNAGIKYHATPPLKRFKDMEYLSGGEKTVAALALLFAINSYQPSPFFVLDEVDAALDITNVQRIAAYIRRHRNPDLQFIVISLKNTMFEKSDALVGVYRQQQENSSKIITLDLSNYAE
With B1, the binding entry in assay [1] was “binds”.

B2: yeast Scc3 (subunit of the purified tetramers) (protein, UniProt P40541 1-1150)
chain: MTAVRRSTRIRTKSQVIEEDYDDEQNTSAQHVESDKITAKTQHEEEEEQDTGESEESSSEDDYEDQDDDDYVDTATAKRKSRKRKPKSASNTSSKRQKKKPTSAQKSAVSHAPAYHRSKKDQDQYLEIAKDFQPTELFDILSTSEDVSIEELLREWLETYSENRDKFLQEFINLLLNCCGSVARVEDHDVHSNESSNETIGEIQLLFQRQKLHEFYLLISKENKKRKNFKMGPLYQNFAEFMTKLLEVANDLQLLYVESDEDDTQIVTGNLVLDLLTWLSSFSVCKIRCFRYISTLTLYLFQDYLTQQAVNLEKNYLAKLSKQLSLEEKKKRPNNKTLEKLESTIAETQGSKVVIDSIIDNIVKLCFVHRYKDVSDLIRSESMLHLSIWIKNYPEYFLKVTFLKYFGWLLSDNSVSVRLQVTKILPHLIIQNHNSKSTDNSAIRQVFERFKTKILEVAIRDVNLDVRIHSIQVLTEASSLGYLDDSEILIISSLMFDEEFDPFKTSSFNKRSKFLSTVAKFLARVIKEKFDEFIKTHEDLPKEVDGLEVGPVVQVGIFIKILNDSLIYHLKDCAEVDSRTKIRMLTQAAEFLSPYISTHLKTICNLLISDTESNELIQKLQNSANNNSDDEDVDDEELDITPLFPIDRNSTILYLNVFHGLCAGANNPKIQTKDSVKEIVLPLFYDLLNAASIESADILCPLLESFITFSLDDWISIGYETELKKITDKTIKAFMDSTIGNSKVDMKYDIFAKFIHHIHHFEKKELQEKFLNQIATLKIHLKKFLQEKMDPNNSRDDYKDLTCSLYELYINKLTILGRDYPIEVDEELLQLFLNNFVSRIPIMFQDFDDSTAQEINFKMLVLLATWNLEKWREIIEKVRDYENSISKDLRSVWKPIAAIIGRLNTLVISLAATNETFENINSLFYLKWSACTSLMDIIVAIKIFELKLPADATTWRYSMSEQFPFYLHDNASKVLLKIFLYLESLFAKQVDVQLERVADEDANLNDLPETGFFENIETEFLLFTVKLKGLMKLNILDERFASRVALNKEKLGPLFKKIVDDTIMENPEPNKKNIQKAKSNQTQREKAPLQPNSERETDHANTENNDPDIPMTIDLEPIEESSQNNSELAPIEEHPTVVDAIDNSDEITQD
For the molecule B2, the binding entry in assay [2] is “binds”.
